# Melanoma cell counts after drug treatment

Source: doi:10.1371/journal.pone.0140310, primary screening data, rounded.

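Human melanoma cells were exposed to two drugs together for 72 h in 1,536-well plates and read by automated microscopy after fixing and staining. The read-out is cell count (nuclei) in % of the DMSO control; lower values mean stronger growth inhibition or killing. Every drug was used at one fixed concentration, the higher of two screened. No replicate spread is given; individual values may be noisy.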
An unselected part of the screen is shown.
A dash means that no value is listed here.

Drug key:
midostaurin, 0.4 µM: CO[C@@H]1[C@H](N(C)C(=O)c2ccccc2)C[C@H]2O[C@]1(C)n1c3ccccc3c3c4c(c5c6ccccc6n2c5c31)C(=O)NC4
FK866, 0.05 µM: O=C(/C=C/c1cccnc1)NCCCCC1CCN(C(=O)c2ccccc2)CC1
fludarabine, 1 µM: Nc1nc(F)nc2c1ncn2[C@@H]1O[C@H](CO)[C@@H](O)[C@@H]1O
T0901317, 7 µM: O=S(=O)(c1ccccc1)N(CC(F)(F)F)c1ccc(C(O)(C(F)(F)F)C(F)(F)F)cc1
Src-I1, 10 µM: COc1cc2ncnc(Nc3ccc(Oc4ccccc4)cc3)c2cc1OC
temozolomide, 10 µM: Cn1nnc2c(C(N)=O)ncn2c1=O
SNS-314, 0.004 µM: O=C(Nc1cccc(Cl)c1)Nc1ncc(CCNc2ncnc3ccsc23)s1
VX-702, 2 µM: NC(=O)c1ccc(N(C(N)=O)c2c(F)cccc2F)nc1-c1ccc(F)cc1F
lestaurtinib, 0.02 µM: C[C@]12O[C@H](C[C@]1(O)CO)n1c3ccccc3c3c4c(c5c6ccccc6n2c5c31)CNC4=O
PLX4720, 0.4 µM: CCCS(=O)(=O)Nc1ccc(F)c(C(=O)c2c[nH]c3ncc(Cl)cc23)c1F

Drugs,COLO 800,C32,WM451Lu,COLO 792,COLO 829,WM3619
temozolomide + PLX4720,159,80.1,63.0,88.7,68.3,75.9
lestaurtinib + VX-702,138,85.2,91.8,64.0,77.2,77.2
midostaurin + PLX4720,38.3,91.3,117,81.0,74.8,85.2
SNS-314 + VX-702,47.0,65.6,68.4,44.4,59.4,70.3
FK866 + lestaurtinib,40.6,102,93.6,45.9,77.9,68.9
temozolomide + fludarabine,162,78.8,129,63.4,85.4,101
T0901317 + PLX4720,88.7,76.5,67.0,106,80.4,78.9
T0901317 + SNS-314,32.4,63.4,35.6,47.1,68.8,58.8
VX-702 + FK866,42.9,93.1,85.5,40.8,58.5,78.0
T0901317 + VX-702,150,108,103,94.2,74.3,-
VX-702 + Src-I1,83.7,85.6,83.2,74.0,98.0,90.2
midostaurin + Src-I1,50.3,110,71.8,53.7,88.0,49.9
FK866 + SNS-314,32.6,86.6,62.6,49.6,71.8,64.3
PLX4720 + fludarabine,82.8,93.0,69.5,76.4,103,79.4
SNS-314 + PLX4720,48.4,59.2,46.7,62.9,88.4,59.7
VX-702 + fludarabine,85.9,92.7,87.7,57.1,89.2,101
PLX4720 + VX-702,111,75.3,57.5,109,76.3,82.0
FK866 + Src-I1,25.8,95.0,75.1,36.5,58.2,20.8
lestaurtinib + midostaurin,37.2,77.5,79.9,64.4,71.1,66.3
SNS-314 + lestaurtinib,47.3,76.9,51.6,48.5,71.4,72.2
midostaurin + SNS-314,37.8,58.7,40.9,29.6,61.1,59.4
FK866 + midostaurin,18.9,73.9,74.4,20.3,49.9,50.7
midostaurin + VX-702,34.0,61.1,87.8,51.5,62.2,111
FK866 + T0901317,38.9,96.6,91.2,44.0,66.5,63.9
SNS-314 + fludarabine,49.4,62.6,54.5,39.7,75.7,68.3
Src-I1 + fludarabine,124,102,117,54.2,100,74.4
lestaurtinib + PLX4720,112,73.3,45.4,69.8,66.8,77.3
T0901317 + fludarabine,96.3,85.2,74.8,76.7,88.3,93.8
FK866 + temozolomide,20.0,86.5,119,40.7,59.5,77.0

2 of the entries, repeated:

Drugs,COLO 800,C32,WM451Lu,COLO 792,COLO 829,WM3619
VX-702 + fludarabine,85.9,92.7,87.7,57.1,89.2,101
PLX4720 + fludarabine,82.8,93.0,69.5,76.4,103,79.4